{"source": "the supplement of paper PMC8728848", "experiment_in_all_cases": "glycan array binding signal (z-score within array); higher = stronger binding", "conditions_in_all_cases": "glycan notation: IUPAC condensed, linker removed", "key": {"[1]": {"biological_target": "Man(a1-2)Man(a1-3)[Man(a1-2)Man(a1-6)]Man(a1-6)[Man(a1-2)Man(a1-2)Man(a1-3)]Man", "procedure,_shortened": "(§1)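 The Consortium for Functional Glycomics database supplied 3228 glycan arrays, of which those lacking an available protein sequence were dropped. The binding signal, a within-array Z-score, was averaged across arrays of the same protein sequence and across linkers. Negative scores can be read as non-binding.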"}, "[2]": {"biological_target": "Man(a1-2)Man(a1-3)[Man(a1-2)Man(a1-6)]Man(a1-6)[Man(a1-2)Man(a1-2)Man(a1-3)]Man(b1-4)GlcNAc(b1-4)GlcNAc", "procedure,_shortened": "as §1"}, "[3]": {"biological_target": "Man(a1-2)Man(a1-3)[Man(a1-6)]Man(a1-6)[Man(a1-2)Man(a1-3)]Man(b1-4)GlcNAc(b1-4)GlcNAc", "procedure,_shortened": "as §1"}, "[4]": {"biological_target": "Man(a1-2)Man(a1-6)[Man(a1-3)]Man(a1-6)[Man(a1-2)Man(a1-2)Man(a1-3)]Man", "procedure,_shortened": "as §1"}, "[5]": {"biological_target": "Man(a1-2)Man(a1-6)[Man(a1-3)]Man(a1-6)[Man(a1-2)Man(a1-2)Man(a1-3)]Man(b1-4)GlcNAc(b1-4)GlcNAc", "procedure,_shortened": "as §1"}, "Man(a1-3)[Man(a1-6)]Man": {"biological_target": "Man(a1-3)[Man(a1-6)]Man", "procedure,_shortened": "as §1"}, "[6]": {"biological_target": "Man(a1-3)[Man(a1-6)]Man(a1-6)[Man(a1-2)Man(a1-3)]Man(b1-4)GlcNAc(b1-4)GlcNAc", "procedure,_shortened": "as §1"}, "[7]": {"biological_target": "Man(a1-3)[Man(a1-6)]Man(a1-6)[Man(a1-3)]Man", "procedure,_shortened": "as §1"}, "[8]": {"biological_target": "Man(a1-3)[Man(a1-6)]Man(a1-6)[Man(a1-3)]Man(b1-4)GlcNAc(b1-4)GlcNAc", "procedure,_shortened": "as §1"}, "[9]": {"biological_target": "Man(a1-3)[Man(a1-6)]Man(b1-4)GlcNAc(b1-4)GlcNAc", "procedure,_shortened": "as §1"}, "[10]": {"biological_target": "Man(a1-3)[Man(a1-6)]Man(b1-4)GlcNAc(b1-4)[Fuc(a1-6)]GlcNAc", "procedure,_shortened": "as §1"}, "Man(a1-6)Man": {"biological_target": "Man(a1-6)Man", "procedure,_shortened": "as §1"}, "Man(b1-4)GlcNAc": {"biological_target": "Man(b1-4)GlcNAc", "procedure,_shortened": "as §1"}, "MurNAc(b1-4)GlcNAc": {"biological_target": "MurNAc(b1-4)GlcNAc", "procedure,_shortened": "as §1"}, "Neu5Ac(a2-3)Gal": {"biological_target": "Neu5Ac(a2-3)Gal", "procedure,_shortened": "as §1"}, "[11]": {"biological_target": "Neu5Ac(a2-3)Gal(b1-3)GalNAc", "procedure,_shortened": "as §1"}, "[12]": {"biological_target": "Neu5Ac(a2-3)Gal(b1-3)GalNAc(b1-3)Gal(a1-4)Gal(b1-4)Glc", "procedure,_shortened": "as §1"}, "[13]": {"biological_target": "Neu5Ac(a2-3)Gal(b1-3)GalNAc(b1-4)[Neu5Ac(a2-3)]Gal(b1-4)Glc", "procedure,_shortened": "as §1"}, "[14]": {"biological_target": "Neu5Ac(a2-3)Gal(b1-3)GalNAc(b1-4)[Neu5Ac(a2-8)Neu5Ac(a2-3)]Gal(b1-4)Glc", "procedure,_shortened": "as §1"}, "[15]": {"biological_target": "Neu5Ac(a2-3)Gal(b1-3)GalNAc6S", "procedure,_shortened": "as §1"}, "[16]": {"biological_target": "Neu5Ac(a2-3)Gal(b1-3)GlcNAc", "procedure,_shortened": "as §1"}, "[17]": {"biological_target": "Neu5Ac(a2-3)Gal(b1-3)GlcNAc(b1-2)Man", "procedure,_shortened": "as §1"}, "[18]": {"biological_target": "Neu5Ac(a2-3)Gal(b1-3)GlcNAc(b1-2)Man(a1-3)[GlcNAc(b1-4)][Neu5Ac(a2-3)Gal(b1-3)GlcNAc(b1-2)Man(a1-6)]Man(b1-4)GlcNAc(b1-4)GlcNAc", "procedure,_shortened": "as §1"}, "[19]": {"biological_target": "Neu5Ac(a2-3)Gal(b1-3)GlcNAc(b1-2)Man(a1-3)[Neu5Ac(a2-3)Gal(b1-3)GlcNAc(b1-2)Man(a1-6)]Man(b1-4)GlcNAc(b1-4)GlcNAc", "procedure,_shortened": "as §1"}, "[20]": {"biological_target": "Neu5Ac(a2-3)Gal(b1-3)GlcNAc(b1-3)Gal(b1-3)GlcNAc", "procedure,_shortened": "as §1"}, "[21]": {"biological_target": "Neu5Ac(a2-3)Gal(b1-3)GlcNAc(b1-3)Gal(b1-4)GlcNAc", "procedure,_shortened": "as §1"}, "[22]": {"biological_target": "Neu5Ac(a2-3)Gal(b1-3)GlcNAc(b1-3)GalNAc", "procedure,_shortened": "as §1"}, "[23]": {"biological_target": "Neu5Ac(a2-3)Gal(b1-3)GlcNAc(b1-4)Gal(b1-4)Glc", "procedure,_shortened": "as §1"}, "[24]": {"biological_target": "Neu5Ac(a2-3)Gal(b1-3)GlcNAc(b1-6)GalNAc", "procedure,_shortened": "as §1"}, "[25]": {"biological_target": "Neu5Ac(a2-3)Gal(b1-3)GlcNAc6S", "procedure,_shortened": "as §1"}, "[26]": {"biological_target": "Neu5Ac(a2-3)Gal(b1-3)[Fuc(a1-4)]GlcNAc", "procedure,_shortened": "as §1"}, "[27]": {"biological_target": "Neu5Ac(a2-3)Gal(b1-3)[Fuc(a1-4)]GlcNAc(b1-3)Gal(b1-3)[Fuc(a1-4)]GlcNAc", "procedure,_shortened": "as §1"}, "[28]": {"biological_target": "Neu5Ac(a2-3)Gal(b1-3)[Fuc(a1-4)]GlcNAc(b1-3)Gal(b1-4)[Fuc(a1-3)]GlcNAc", "procedure,_shortened": "as §1"}, "[29]": {"biological_target": "Neu5Ac(a2-3)Gal(b1-3)[GlcNAc(b1-6)]GalNAc", "procedure,_shortened": "as §1"}, "[30]": {"biological_target": "Neu5Ac(a2-3)Gal(b1-3)[Neu5Ac(a2-6)]GalNAc", "procedure,_shortened": "as §1"}, "[31]": {"biological_target": "Neu5Ac(a2-3)Gal(b1-3)[Neu5Ac(a2-6)]GlcNAc(b1-3)[Fuc(a1-3)[Gal(b1-4)]GlcNAc(b1-6)]Gal(b1-4)Glc", "procedure,_shortened": "as §1"}, "[32]": {"biological_target": "Neu5Ac(a2-3)Gal(b1-3)]Neu5Ac(a2-3)Gal(b1-4)]GlcNAc", "procedure,_shortened": "as §1"}}, "note": "This is one part of the list."}
{"binder": "PX14343I-pdi-501-30-501 (Parabacteroides distasonis) (protein) SDQYSTETFWKTKEHASAGIMGCYNALKLWRSLHTMEFDMLTANAMPYNEANGTQAIGKGEHLSTTALIGSLWKNCYVGIGRTNTFIANVGGVDMDESEKAKMVGEAKFLRAFYYLSLVDKFGGVPLIIDAPNADEQAELPRNSKEEVVNQIVKDLEEAAAVLPDTYASSDLGRATKGAALALKARTLLYNSRWAEAAQAAKQVMESGVYQLFNDYRHFFSEDNKYNCEVIFDIEAKLPEYPTDYDQNIWRLNRPAPLKELVDTYLCVDGKTIEESPLYDPTRPYENRDPRLLKSIVCIGYPYLGKTITKEDVATTGFGVKKYTSYEDDVTIPLVERSAFNFILIRYAEVLLTYAEAQNEASGPDQSVYDAINQLRRRPDINMPEVPKGLTKDQMREVIRRERRIELTFEGLYYSDILRWKTAEKENNGMMHNYEGIEVVKRSFNPKRDYLWPIPYNQTVLNPNLEQNPNWD", "values": [{"measurement": "glycan array binding signal (z-score)", "setting": "[1]", "value": -0.598}, {"measurement": "glycan array binding signal (z-score)", "setting": "[2]", "value": 0.365}, {"measurement": "glycan array binding signal (z-score)", "setting": "[3]", "value": 0.075}, {"measurement": "glycan array binding signal (z-score)", "setting": "[4]", "value": -0.091}, {"measurement": "glycan array binding signal (z-score)", "setting": "[5]", "value": -1.02}, {"measurement": "glycan array binding signal (z-score)", "setting": "Man(a1-3)[Man(a1-6)]Man", "value": 0.631}, {"measurement": "glycan array binding signal (z-score)", "setting": "[6]", "value": 0.28}, {"measurement": "glycan array binding signal (z-score)", "setting": "[7]", "value": 0.084}, {"measurement": "glycan array binding signal (z-score)", "setting": "[8]", "value": 0.18}, {"measurement": "glycan array binding signal (z-score)", "setting": "[9]", "value": -0.365}, {"measurement": "glycan array binding signal (z-score)", "setting": "[10]", "value": -0.538}, {"measurement": "glycan array binding signal (z-score)", "setting": "Man(a1-6)Man", "value": 0.339}, {"measurement": "glycan array binding signal (z-score)", "setting": "Man(b1-4)GlcNAc", "value": -0.706}, {"measurement": "glycan array binding signal (z-score)", "setting": "MurNAc(b1-4)GlcNAc", "value": -0.518}, {"measurement": "glycan array binding signal (z-score)", "setting": "Neu5Ac(a2-3)Gal", "value": 0.524}, {"measurement": "glycan array binding signal (z-score)", "setting": "[11]", "value": -0.237}, {"measurement": "glycan array binding signal (z-score)", "setting": "[12]", "value": 0.694}, {"measurement": "glycan array binding signal (z-score)", "setting": "[13]", "value": -0.336}, {"measurement": "glycan array binding signal (z-score)", "setting": "[14]", "value": -1.31}, {"measurement": "glycan array binding signal (z-score)", "setting": "[15]", "value": -0.135}, {"measurement": "glycan array binding signal (z-score)", "setting": "[16]", "value": -0.433}, {"measurement": "glycan array binding signal (z-score)", "setting": "[17]", "value": -0.179}, {"measurement": "glycan array binding signal (z-score)", "setting": "[18]", "value": -0.745}, {"measurement": "glycan array binding signal (z-score)", "setting": "[19]", "value": 0.031}, {"measurement": "glycan array binding signal (z-score)", "setting": "[20]", "value": -0.739}, {"measurement": "glycan array binding signal (z-score)", "setting": "[21]", "value": -0.206}, {"measurement": "glycan array binding signal (z-score)", "setting": "[22]", "value": -0.262}, {"measurement": "glycan array binding signal (z-score)", "setting": "[23]", "value": -0.555}, {"measurement": "glycan array binding signal (z-score)", "setting": "[24]", "value": -0.663}, {"measurement": "glycan array binding signal (z-score)", "setting": "[25]", "value": 0.182}, {"measurement": "glycan array binding signal (z-score)", "setting": "[26]", "value": -0.06}, {"measurement": "glycan array binding signal (z-score)", "setting": "[27]", "value": -0.006}, {"measurement": "glycan array binding signal (z-score)", "setting": "[28]", "value": -0.652}, {"measurement": "glycan array binding signal (z-score)", "setting": "[29]", "value": 0.535}, {"measurement": "glycan array binding signal (z-score)", "setting": "[30]", "value": -0.417}, {"measurement": "glycan array binding signal (z-score)", "setting": "[31]", "value": -0.456}, {"measurement": "glycan array binding signal (z-score)", "setting": "[32]", "value": -0.687}]}
